According to the supplement of paper PMC11732987, “Enantioselective OTUD7B fragment discovery through chemoproteomics screening and high-throughput optimisation” (Communications Chemistry, 2025):
The other results are listed elsewhere or left out. The data scatter; read single values as rough.

The chains behind the UniProt entries cited, without tags or fusion partners. Where a name states a change or a piece, a line headed by the entry shows the natural chain unless it says otherwise. Residues count along the entry.
UniProt Q9H9Y6, whole entry, looked up: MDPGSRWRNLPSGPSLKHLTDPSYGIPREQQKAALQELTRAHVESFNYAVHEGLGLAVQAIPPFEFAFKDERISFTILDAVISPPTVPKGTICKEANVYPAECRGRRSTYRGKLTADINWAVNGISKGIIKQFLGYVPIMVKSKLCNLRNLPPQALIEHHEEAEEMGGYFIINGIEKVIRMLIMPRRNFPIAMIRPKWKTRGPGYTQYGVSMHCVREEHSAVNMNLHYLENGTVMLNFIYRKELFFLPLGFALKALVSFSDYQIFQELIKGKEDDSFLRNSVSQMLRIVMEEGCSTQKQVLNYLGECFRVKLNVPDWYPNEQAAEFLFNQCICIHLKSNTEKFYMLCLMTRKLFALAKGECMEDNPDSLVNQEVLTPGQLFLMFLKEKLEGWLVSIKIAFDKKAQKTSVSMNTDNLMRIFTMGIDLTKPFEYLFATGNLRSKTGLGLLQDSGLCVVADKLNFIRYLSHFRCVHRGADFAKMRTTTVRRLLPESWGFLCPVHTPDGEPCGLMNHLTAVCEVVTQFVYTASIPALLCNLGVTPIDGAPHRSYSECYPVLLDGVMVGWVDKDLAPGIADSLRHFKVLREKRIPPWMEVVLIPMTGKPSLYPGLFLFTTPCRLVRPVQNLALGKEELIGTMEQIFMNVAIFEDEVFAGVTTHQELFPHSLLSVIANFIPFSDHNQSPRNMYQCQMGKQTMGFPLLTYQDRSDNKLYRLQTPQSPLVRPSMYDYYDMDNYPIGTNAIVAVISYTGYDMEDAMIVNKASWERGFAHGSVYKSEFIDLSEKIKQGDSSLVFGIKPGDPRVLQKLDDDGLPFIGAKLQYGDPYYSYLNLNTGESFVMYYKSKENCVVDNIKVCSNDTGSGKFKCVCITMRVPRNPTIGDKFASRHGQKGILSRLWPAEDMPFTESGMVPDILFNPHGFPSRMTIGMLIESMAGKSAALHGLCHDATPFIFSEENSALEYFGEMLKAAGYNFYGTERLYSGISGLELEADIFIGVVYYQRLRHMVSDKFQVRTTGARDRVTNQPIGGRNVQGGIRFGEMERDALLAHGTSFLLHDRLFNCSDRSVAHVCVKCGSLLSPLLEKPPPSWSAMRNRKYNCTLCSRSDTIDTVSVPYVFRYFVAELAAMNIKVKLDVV
UniProt Q5JRX3: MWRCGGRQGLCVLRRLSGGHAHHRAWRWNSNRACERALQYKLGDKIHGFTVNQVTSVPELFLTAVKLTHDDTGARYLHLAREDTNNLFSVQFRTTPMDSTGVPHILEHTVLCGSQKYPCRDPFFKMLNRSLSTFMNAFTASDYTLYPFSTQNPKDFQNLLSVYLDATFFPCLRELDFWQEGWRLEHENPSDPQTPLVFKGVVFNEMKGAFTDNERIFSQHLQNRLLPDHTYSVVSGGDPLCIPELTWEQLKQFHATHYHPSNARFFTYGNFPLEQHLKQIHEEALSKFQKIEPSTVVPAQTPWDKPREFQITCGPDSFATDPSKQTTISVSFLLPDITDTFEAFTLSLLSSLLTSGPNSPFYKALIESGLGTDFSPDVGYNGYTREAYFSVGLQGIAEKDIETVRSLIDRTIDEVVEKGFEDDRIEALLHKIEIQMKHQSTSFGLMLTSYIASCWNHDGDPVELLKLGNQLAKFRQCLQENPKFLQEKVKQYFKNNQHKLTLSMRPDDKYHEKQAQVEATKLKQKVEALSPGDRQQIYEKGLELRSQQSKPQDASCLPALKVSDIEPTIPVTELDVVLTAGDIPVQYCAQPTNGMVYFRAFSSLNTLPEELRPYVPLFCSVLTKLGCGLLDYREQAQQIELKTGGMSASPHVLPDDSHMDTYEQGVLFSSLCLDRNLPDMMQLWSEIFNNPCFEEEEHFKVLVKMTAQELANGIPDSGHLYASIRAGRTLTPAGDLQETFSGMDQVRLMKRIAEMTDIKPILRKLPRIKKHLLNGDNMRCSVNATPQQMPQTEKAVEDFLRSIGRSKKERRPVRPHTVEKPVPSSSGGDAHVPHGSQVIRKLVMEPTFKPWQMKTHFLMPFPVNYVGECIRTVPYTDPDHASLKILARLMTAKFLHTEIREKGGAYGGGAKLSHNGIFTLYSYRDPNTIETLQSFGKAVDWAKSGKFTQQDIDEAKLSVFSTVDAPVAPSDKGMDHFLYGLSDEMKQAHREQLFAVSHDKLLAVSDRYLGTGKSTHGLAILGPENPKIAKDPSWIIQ
UniProt Q9HAU0: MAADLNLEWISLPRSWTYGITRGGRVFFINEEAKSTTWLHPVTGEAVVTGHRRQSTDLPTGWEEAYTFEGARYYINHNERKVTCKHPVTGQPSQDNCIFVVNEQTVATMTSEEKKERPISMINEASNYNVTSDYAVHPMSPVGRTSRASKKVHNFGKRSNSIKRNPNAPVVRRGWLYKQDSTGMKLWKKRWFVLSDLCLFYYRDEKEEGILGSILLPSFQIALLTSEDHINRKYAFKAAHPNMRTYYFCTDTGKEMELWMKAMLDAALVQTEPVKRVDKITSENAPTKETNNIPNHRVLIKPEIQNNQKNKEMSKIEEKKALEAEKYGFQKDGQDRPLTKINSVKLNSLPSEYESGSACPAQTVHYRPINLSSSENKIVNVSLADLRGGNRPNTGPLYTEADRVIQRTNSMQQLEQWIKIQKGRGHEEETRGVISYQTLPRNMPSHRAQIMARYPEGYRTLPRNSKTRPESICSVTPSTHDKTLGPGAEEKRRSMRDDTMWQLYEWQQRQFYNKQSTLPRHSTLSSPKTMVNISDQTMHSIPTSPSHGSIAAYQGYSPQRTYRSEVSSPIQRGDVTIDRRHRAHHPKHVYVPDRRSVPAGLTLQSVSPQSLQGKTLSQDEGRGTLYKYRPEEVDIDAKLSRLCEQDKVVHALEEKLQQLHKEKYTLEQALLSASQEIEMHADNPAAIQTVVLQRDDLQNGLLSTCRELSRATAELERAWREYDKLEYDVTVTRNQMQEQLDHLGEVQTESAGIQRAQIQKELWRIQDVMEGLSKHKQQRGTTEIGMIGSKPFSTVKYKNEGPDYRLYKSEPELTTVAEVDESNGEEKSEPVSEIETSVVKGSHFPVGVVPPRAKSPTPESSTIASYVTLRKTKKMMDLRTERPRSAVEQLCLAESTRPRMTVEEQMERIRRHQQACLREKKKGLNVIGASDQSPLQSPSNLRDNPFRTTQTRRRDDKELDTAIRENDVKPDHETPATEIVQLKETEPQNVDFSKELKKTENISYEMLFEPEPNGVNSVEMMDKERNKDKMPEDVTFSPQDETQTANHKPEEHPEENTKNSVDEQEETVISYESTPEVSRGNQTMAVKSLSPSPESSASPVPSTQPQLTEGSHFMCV
UniProt O60664, 29-50: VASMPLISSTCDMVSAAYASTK
UniProt Q9BSJ6, 28-48: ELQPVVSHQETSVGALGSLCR
UniProt Q9Y2I7: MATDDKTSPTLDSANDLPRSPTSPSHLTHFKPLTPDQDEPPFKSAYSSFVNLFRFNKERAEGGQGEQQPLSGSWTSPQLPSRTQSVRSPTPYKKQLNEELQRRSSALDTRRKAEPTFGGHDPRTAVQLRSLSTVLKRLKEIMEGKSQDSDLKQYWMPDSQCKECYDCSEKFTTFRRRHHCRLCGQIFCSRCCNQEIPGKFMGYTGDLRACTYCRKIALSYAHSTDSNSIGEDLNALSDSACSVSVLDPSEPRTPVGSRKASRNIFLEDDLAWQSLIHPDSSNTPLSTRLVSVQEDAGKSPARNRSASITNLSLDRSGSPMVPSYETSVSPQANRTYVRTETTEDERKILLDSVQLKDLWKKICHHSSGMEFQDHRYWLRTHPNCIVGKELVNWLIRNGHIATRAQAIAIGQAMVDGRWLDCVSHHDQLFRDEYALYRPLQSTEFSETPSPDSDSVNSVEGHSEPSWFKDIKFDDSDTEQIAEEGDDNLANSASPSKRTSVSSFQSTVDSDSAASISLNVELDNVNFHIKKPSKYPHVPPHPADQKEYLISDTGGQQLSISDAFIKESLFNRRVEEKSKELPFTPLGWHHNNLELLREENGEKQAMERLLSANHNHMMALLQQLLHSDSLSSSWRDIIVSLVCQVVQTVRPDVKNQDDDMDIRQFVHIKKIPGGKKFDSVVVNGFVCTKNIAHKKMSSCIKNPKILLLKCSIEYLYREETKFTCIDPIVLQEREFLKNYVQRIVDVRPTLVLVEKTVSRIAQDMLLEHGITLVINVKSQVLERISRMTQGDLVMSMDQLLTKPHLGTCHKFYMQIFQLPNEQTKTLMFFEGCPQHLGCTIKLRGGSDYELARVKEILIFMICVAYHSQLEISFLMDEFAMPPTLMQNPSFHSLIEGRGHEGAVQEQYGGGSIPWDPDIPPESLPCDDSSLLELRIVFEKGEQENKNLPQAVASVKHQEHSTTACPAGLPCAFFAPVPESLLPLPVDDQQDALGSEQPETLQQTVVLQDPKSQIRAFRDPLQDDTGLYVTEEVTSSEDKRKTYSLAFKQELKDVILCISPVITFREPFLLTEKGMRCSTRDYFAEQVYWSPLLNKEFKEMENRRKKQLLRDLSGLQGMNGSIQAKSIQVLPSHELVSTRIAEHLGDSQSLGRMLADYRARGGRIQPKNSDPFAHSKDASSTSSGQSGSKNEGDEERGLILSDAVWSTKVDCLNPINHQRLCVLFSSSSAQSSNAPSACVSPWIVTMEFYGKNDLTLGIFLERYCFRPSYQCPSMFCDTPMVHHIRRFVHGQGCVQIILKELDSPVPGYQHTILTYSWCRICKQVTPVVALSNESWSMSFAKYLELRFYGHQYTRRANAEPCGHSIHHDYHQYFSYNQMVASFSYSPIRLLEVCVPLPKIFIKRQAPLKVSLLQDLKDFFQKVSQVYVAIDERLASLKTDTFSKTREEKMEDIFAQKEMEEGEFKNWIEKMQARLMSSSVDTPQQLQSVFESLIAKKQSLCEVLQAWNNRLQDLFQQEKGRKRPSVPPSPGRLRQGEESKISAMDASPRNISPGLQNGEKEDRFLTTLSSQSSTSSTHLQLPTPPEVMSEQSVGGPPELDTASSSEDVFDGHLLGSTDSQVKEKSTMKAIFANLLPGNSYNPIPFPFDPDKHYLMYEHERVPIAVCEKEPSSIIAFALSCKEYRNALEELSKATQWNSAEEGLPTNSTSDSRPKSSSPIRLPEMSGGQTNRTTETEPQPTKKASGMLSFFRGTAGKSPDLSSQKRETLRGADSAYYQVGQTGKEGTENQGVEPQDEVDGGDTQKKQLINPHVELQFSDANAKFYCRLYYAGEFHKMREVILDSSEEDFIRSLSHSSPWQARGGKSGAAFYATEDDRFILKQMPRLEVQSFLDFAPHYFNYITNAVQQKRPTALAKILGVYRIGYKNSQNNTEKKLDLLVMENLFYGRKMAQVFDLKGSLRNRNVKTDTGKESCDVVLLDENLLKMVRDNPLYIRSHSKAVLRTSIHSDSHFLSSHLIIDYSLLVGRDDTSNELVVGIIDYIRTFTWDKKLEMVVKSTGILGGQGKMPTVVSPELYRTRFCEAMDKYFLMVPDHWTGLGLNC
UniProt O75925, whole entry, looked up: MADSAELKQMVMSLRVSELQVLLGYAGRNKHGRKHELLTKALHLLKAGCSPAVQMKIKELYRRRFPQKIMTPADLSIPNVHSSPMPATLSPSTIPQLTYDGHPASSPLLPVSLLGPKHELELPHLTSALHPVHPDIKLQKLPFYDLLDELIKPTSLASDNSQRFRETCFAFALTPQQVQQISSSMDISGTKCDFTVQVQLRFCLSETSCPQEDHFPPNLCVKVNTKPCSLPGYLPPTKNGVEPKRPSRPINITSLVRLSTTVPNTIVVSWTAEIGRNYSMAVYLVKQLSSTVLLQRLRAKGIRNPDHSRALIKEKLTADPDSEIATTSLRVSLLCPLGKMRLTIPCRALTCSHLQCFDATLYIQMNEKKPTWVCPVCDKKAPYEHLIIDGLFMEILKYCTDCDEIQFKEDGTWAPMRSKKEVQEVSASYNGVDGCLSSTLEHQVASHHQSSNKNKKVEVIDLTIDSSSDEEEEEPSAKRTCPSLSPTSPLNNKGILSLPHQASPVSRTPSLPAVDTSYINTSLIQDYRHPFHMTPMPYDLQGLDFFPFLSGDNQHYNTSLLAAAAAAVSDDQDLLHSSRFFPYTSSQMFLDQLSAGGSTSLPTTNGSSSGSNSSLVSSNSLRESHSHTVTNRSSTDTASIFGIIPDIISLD
UniProt Q9BTU6: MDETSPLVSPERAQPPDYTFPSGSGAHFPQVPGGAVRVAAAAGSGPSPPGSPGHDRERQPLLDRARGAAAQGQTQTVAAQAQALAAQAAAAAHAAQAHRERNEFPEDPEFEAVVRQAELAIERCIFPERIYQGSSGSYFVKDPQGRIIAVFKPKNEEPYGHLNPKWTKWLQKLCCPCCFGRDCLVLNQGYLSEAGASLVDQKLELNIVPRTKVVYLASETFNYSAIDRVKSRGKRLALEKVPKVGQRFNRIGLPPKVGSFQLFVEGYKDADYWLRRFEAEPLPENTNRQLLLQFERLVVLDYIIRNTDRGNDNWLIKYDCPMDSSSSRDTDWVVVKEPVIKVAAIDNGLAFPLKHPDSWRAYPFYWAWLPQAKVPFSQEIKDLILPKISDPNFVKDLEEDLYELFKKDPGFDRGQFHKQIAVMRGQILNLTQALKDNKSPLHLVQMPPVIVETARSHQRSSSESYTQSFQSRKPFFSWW

compound: ClCC(=O)N[C@@H]1CCCc2ccccc12; assay: log2 mean competition ratio of IA-DTB cysteine labelling (DMSO/compound) (log2 ratio); higher = stronger cysteine engagement by compound; details: 50 µM; treatment time: 4 h; cell line lysate: HEK293T
Method: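 IA-DTB competitive cysteine chemoproteomics in HEK293T RIPA lysate. Lysates were treated with compound 29 or 30 at 50 or 200 µM for 4 h, then IA-DTB (500 µM, 1 h), trypsin-digested, NeutrAvidin-enriched and analysed by diaPASEF. Competition ratio = intensity DMSO / intensity compound (n=4 treated, n=64 DMSO); binding: mean log2 CR ≥ 1 and p ≤ 0.05 plus QC filters. Target is the cysteine site.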

Target	log2 mean competition ratio
POLR1B C1061 (UniProt Q9H9Y6)	0.0484
PITRM1 C556 (UniProt Q5JRX3)	-0.0939
POLI C336 (UniProt Q9UNA4)	-0.0815
POLA2 C198 (UniProt Q14181)	-0.00726
PKN3 C840 (UniProt Q6P5Z2)	-0.128
POLR1B C1070 (UniProt Q9H9Y6)	0.203
PLEKHA3 C216 (UniProt Q9HB20)	-0.183
PLEKHA5 C891 (UniProt Q9HAU0)	0.0574
POLQ C2295 (UniProt O75417)	0.488
PLIN3 C39 (UniProt O60664)	0.285
POGLUT3 C156 (UniProt Q7Z4H8)	0.229
PLA2G15 C355 (UniProt Q8NCC3)	-0.198
PLEKHH3 C682	0.321
PKM C474	-0.0158
PIK3R4 C84 (UniProt Q99570)	0.281
PIMREG C47 (UniProt Q9BSJ6)	-0.165
PIKFYVE C1663 (UniProt Q9Y2I7)	-0.116
PIAS1 C335 (UniProt O75925)	-0.101
PI4K2A C320 (UniProt Q9BTU6)	0.347
PMVK C92 (UniProt Q15126)	-0.275

same assay, conditions: 200 µM; treatment time: 4 h; cell line lysate: HEK293T

Target	log2 mean competition ratio
POLR1B C1061 (UniProt Q9H9Y6)	0.219
PITRM1 C556 (UniProt Q5JRX3)	0.116
POLI C336 (UniProt Q9UNA4)	0.285
POLA2 C198 (UniProt Q14181)	-0.00803
PKN3 C840 (UniProt Q6P5Z2)	0.0121
POLR1B C1070 (UniProt Q9H9Y6)	-0.309
PLEKHA3 C216 (UniProt Q9HB20)	0.377
PLEKHA5 C891 (UniProt Q9HAU0)	0.109
POLQ C2295 (UniProt O75417)	0.391
PLIN3 C39 (UniProt O60664)	0.237
POGLUT3 C156 (UniProt Q7Z4H8)	0.0555
PLA2G15 C355 (UniProt Q8NCC3)	-0.0227
PLEKHH3 C682	0.125
PKM C474	-0.258
PIK3R4 C84 (UniProt Q99570)	0.0142
PIMREG C47 (UniProt Q9BSJ6)	-0.362
PIKFYVE C1663 (UniProt Q9Y2I7)	0.0356
PIAS1 C335 (UniProt O75925)	-0.0933
PI4K2A C320 (UniProt Q9BTU6)	-0.133
PMVK C92 (UniProt Q15126)	0.104
